Results deposited as PubChem BioAssay AID652243 (Drosophila RNAi Screening Center, 2013)
The deposit covers about 24,000 reagents; shown is an unselected part of those with a known target gene and a result. In the full data, 246 (1%) got an active call. 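Plates not normalised; calls are printed but the firefly/Renilla ratio behind them is not deposited; fold cut for lowering reported inconsistently.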 Raw values vary from plate to plate and are shown uncorrected. Names joined by + are all predicted targets of the reagent. Not given: the amount of reagent.

Test: 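Fly regulators of androgen-dependent reporter output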 (primary screen)
Cell system: Drosophila S2R+ cells
Reagents: long dsRNA against Drosophila genes
Timing: 72 h (48 h, then 24 h hormone)
Treatment: synthetic androgen R1881 at 10 nM for 24 h
Measurement: 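Firefly light from an androgen-responsive reporter and Renilla control light per well, raw and unnormalised, for each of two replicates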
Scale: firefly reporter light: higher = more light from androgen-responsive reporter; Renilla control light: higher = more constitutive control signal (cell number, transfection)
Rule for the call: 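Across duplicate plates, a knock-down whose log firefly/Renilla ratio shifted a set fold down or up from the GFP/LacZ control mean was a hit; the downward cut appears as both 1.5 and 3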
Calls: active = hit: reporter lowered or raised; inactive = no hit

Gene	dsRNA	firefly reporter light, replicate 1	firefly reporter light, replicate 2	Renilla control light, replicate 1	Renilla control light, replicate 2	activity call
CG18540	DRSC06767	98584	67280	1.35e6	1.35e6	inactive
CG18540	DRSC26991	3.91e5	3.77e5	5.70e5	5.14e5	inactive
CG14957	DRSC08416	1.60e5	1.77e5	2.48e6	2.82e6	inactive
CG32280	DRSC08024	1.53e5	1.69e5	3.08e5	3.00e5	inactive
CG13930	DRSC08399	78389	63013	8.21e5	8.25e5	inactive
CG13930	DRSC28494	6.45e5	9.61e5	8.81e5	9.83e5	inactive
CG11634	DRSC03700	1.75e5	1.99e5	1.26e6	1.48e6	inactive
CG4983	DRSC02799	1.00e6	9.35e5	2.19e6	2.09e6	inactive
CG4983	DRSC26444	3.68e5	2.29e5	7.21e5	6.51e5	inactive
Acsx1R + Acsx1L	DRSC24222	9.46e5	8.96e5	8.88e5	9.59e5	inactive
CG5715	DRSC15860	1.53e5	1.27e5	1.74e6	1.71e6	inactive
CG5715	DRSC26011	4.23e5	4.47e5	8.52e5	7.19e5	inactive
CG12325	DRSC06130	9.64e5	8.55e5	1.53e6	9.92e5	inactive
pall	DRSC10364	1.50e6	3.85e5	1.12e6	4.52e5	inactive
CG8785	DRSC07266	1.06e6	1.16e6	1.10e6	1.53e6	inactive
CG15365	DRSC23021	9.93e5	1.09e6	8.50e5	9.27e5	inactive
CG31064	DRSC14756	2.41e5	1.61e5	2.37e6	2.86e6	inactive
CG31064	DRSC15941	1.42e5	95389	2.10e6	1.98e6	inactive
CG31064	DRSC15942	1.13e5	1.09e5	1.59e6	2.26e6	inactive
CG31064	DRSC15943	38687	49393	9.86e5	1.54e6	active
tmod	DRSC14314	1.24e5	1.00e5	1.82e6	2.49e6	inactive
tmod	DRSC15076	1.37e5	90737	1.88e6	1.85e6	inactive
tmod	DRSC17062	60227	76538	6.69e5	5.08e5	inactive
tmod	DRSC25448	2.52e5	2.64e5	6.11e5	5.34e5	inactive
Jhbp10	DRSC37785	4.60e5	3.52e5	1.85e6	9.29e5	inactive
Lcp3	DRSC07457	4.22e5	3.20e5	2.34e6	1.71e6	inactive
Lcp3	DRSC25185	5.53e5	4.76e5	5.60e5	6.18e5	inactive
GatB	DRSC15807	1.10e5	1.99e5	2.23e6	2.46e6	inactive
GatB	DRSC27887	7.98e5	3.63e5	1.61e6	1.08e6	inactive

11 entries from above, reformatted.
Gene,dsRNA,"firefly reporter light, replicate 1","firefly reporter light, replicate 2","Renilla control light, replicate 1","Renilla control light, replicate 2",activity call
CG8785,DRSC07266,1.06e6,1.16e6,1.10e6,1.53e6,inactive
CG15365,DRSC23021,9.93e5,1.09e6,8.50e5,9.27e5,inactive
CG31064,DRSC14756,2.41e5,1.61e5,2.37e6,2.86e6,inactive
CG31064,DRSC15941,1.42e5,95389,2.10e6,1.98e6,inactive
CG31064,DRSC15942,1.13e5,1.09e5,1.59e6,2.26e6,inactive
CG31064,DRSC15943,38687,49393,9.86e5,1.54e6,active
tmod,DRSC14314,1.24e5,1.00e5,1.82e6,2.49e6,inactive
tmod,DRSC15076,1.37e5,90737,1.88e6,1.85e6,inactive
tmod,DRSC17062,60227,76538,6.69e5,5.08e5,inactive
tmod,DRSC25448,2.52e5,2.64e5,6.11e5,5.34e5,inactive
Jhbp10,DRSC37785,4.60e5,3.52e5,1.85e6,9.29e5,inactive

The list goes on:
Gene	dsRNA	firefly reporter light, replicate 1	firefly reporter light, replicate 2	Renilla control light, replicate 1	Renilla control light, replicate 2	activity call
nenya	DRSC13838	68191	88440	2.58e5	2.12e5	inactive
Mgat1	DRSC07463	40740	45627	8.30e5	8.75e5	inactive
Yif1	DRSC15817	1.46e5	1.40e5	1.28e6	2.39e6	inactive
Polr3F	DRSC15785	3.66e5	4.21e5	3.64e6	3.37e6	inactive
LPCAT	DRSC18157	3.55e5	3.65e5	3.38e6	3.07e6	inactive
LPCAT	DRSC18257	2.81e5	3.51e5	3.21e6	3.12e6	inactive
dj-1beta	DRSC14599	2.18e5	2.33e5	2.31e6	2.87e6	inactive
dj-1beta	DRSC25743	5.36e5	4.26e5	5.38e5	5.80e5	inactive
mthl4	DRSC06998	1.73e5	1.45e5	3.22e6	3.22e6	inactive
Cyp4g1	DRSC18459	1.02e5	85229	4.84e5	5.23e5	inactive
Cyp4g1	DRSC29899	3.17e5	2.95e5	8.28e5	5.36e5	inactive
CR18228	DRSC15317	1.06e5	1.21e5	2.31e6	2.36e6	inactive
CG1602	DRSC06601	2.50e5	2.88e5	1.50e6	9.51e5	inactive
Srlp	DRSC15890	1.31e5	1.73e5	1.56e6	2.02e6	inactive
CG14137	DRSC10142	2.54e5	1.80e5	2.57e6	1.81e6	inactive
CG14137	DRSC25376	7.56e5	7.85e5	1.69e6	1.53e6	inactive
CG15170	DRSC02471	1.46e5	1.34e5	1.36e6	1.25e6	inactive
CG9932	DRSC03275	2.40e5	1.85e5	1.34e6	9.61e5	inactive
CG5050	DRSC02807	1.95e5	2.03e5	2.11e6	2.01e6	inactive
Klp67A + CG34456	DRSC10420	1.46e5	1.37e5	1.60e6	1.06e6	inactive
CG3097	DRSC18275	2.18e5	2.71e5	2.05e6	1.52e6	inactive
CG4854	DRSC15663	1.72e5	1.86e5	2.69e6	2.53e6	inactive
CG4854	DRSC27454	1.73e5	2.65e5	7.89e5	7.86e5	inactive
Amph	DRSC07578	9.45e5	8.27e5	1.58e6	1.45e6	inactive
CG16781	DRSC18117	3.09e5	4.25e5	3.73e6	4.28e6	inactive
CG16781	DRSC28112	4.35e5	4.47e5	1.73e6	1.78e6	inactive
CG3078	DRSC18531	9450	11988	2.89e5	2.40e5	inactive
CG3078	DRSC23471	7.23e5	4.43e5	5.10e5	5.21e5	inactive
CG3078	DRSC38979	1.11e6	6.45e5	1.72e6	1.50e6	inactive
CG13108	DRSC02206	81329	1.21e5	1.27e6	1.05e6	inactive
Rpn12	DRSC11275	1.48e5	1.00e5	8.38e5	7.71e5	inactive
Rpn12	DRSC28589	4.04e5	4.07e5	1.05e6	9.73e5	inactive
eRF1	DRSC11779	35637	31541	3.84e5	2.44e5	inactive
eRF1	DRSC27974	8.00e5	4.67e5	3.24e6	1.81e6	inactive
CG43901	DRSC19397	2.97e5	2.99e5	2.43e6	3.07e6	inactive
CG43901	DRSC22791	5.15e5	7.72e5	1.57e6	1.91e6	inactive
CG43901	DRSC27031	4.89e5	4.60e5	7.84e5	6.38e5	inactive
CG43901	DRSC29119	5.11e5	6.67e5	1.48e6	1.74e6	inactive
CG13670	DRSC10029	1.82e5	2.04e5	2.53e6	2.27e6	inactive
CG13670	DRSC26092	3.60e5	4.05e5	8.04e5	6.81e5	inactive
st	DRSC11399	14668	33015	3.02e5	2.84e5	inactive
st	DRSC28257	2.80e5	4.92e5	8.33e5	1.68e6	inactive
CG34202	DRSC38630	6.89e5	7.71e5	1.90e6	2.11e6	inactive
ACOX1	DRSC05941	1.53e6	9.25e5	2.62e6	1.81e6	inactive
ACOX1	DRSC24604	8.10e5	6.04e5	8.91e5	9.47e5	inactive
